The values below come from publication doi:10.1101/640771 (bioRxiv, 2019).

Results are given in words; binding and its absence hold for the method and conditions named. In cells and extracts the contact can be indirect. Some entries that bind do so weakly or less than the wild type. Tags and fused reporters may be left off the sequences shown.

This assay has as its target T1, YfgM-ALFA (C-terminally ALFA-tagged YfgM) (E. coli) (UniProt P76576).
T1 sequence: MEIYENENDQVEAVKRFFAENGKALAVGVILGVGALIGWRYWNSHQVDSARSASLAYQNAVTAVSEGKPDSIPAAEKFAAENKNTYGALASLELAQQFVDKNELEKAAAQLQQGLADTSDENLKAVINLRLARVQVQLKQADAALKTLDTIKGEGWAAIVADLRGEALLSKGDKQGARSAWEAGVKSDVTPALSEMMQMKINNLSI
In words: co-IP.

B1: PpiD (protein, UniProt P0ADY1 1-623)
chain: MMDSLRTAANSLVLKIIFGIIIVSFILTGVSGYLIGGGNNYAAKVNDQEISRGQFENAFNSERNRMQQQLGDQYSELAANEGYMKTLRQQVLNRLIDEALLDQYARELKLGISDEQVKQAIFATPAFQVDGKFDNSRYNGILNQMGMTADQYAQALRNQLTTQQLINGVAGTDFMLKGETDELAALVAQQRVVREATIDVNALAAKQPVTEQEIASYYEQNKNNFMTPEQFRVSYIKLDAATMQQPVSDADIQSYYDQHQDQFTQPQRTRYSIIQTKTEDEAKAVLDELNKGGDFAALAKEKSADIISARNGGDMGWLEDATIPDELKNAGLKEKGQLSGVIKSSVGFLIVRLDDIQPAKVKSLDEVRDDIAAKVKHEKALDAYYALQQKVSDAASNDTESLAGAEQAAGVKATQTGWFSKDNLPEELNFKPVADAIFNGGLVGENGAPGINSDIITVDGDRAFVLRISEHKPEAVKPLADVQEQVKALVQHNKAEQQAKVDAEKLLVDLKAGKGAEAMQAAGLKFGEPKTLSRSGRDPISQAAFALPLPAKDKPSYGMATDMQGNVVLLALDEVKQGSMPEDQKKAMVQGITQNNAQIVFEALMSNLRKEAKIKIGDALEQQ
With B1, the binding entry was “binds”.
